Among the data in PMC7438335 are binding values, retold here.

These are yes or no findings as the source states them, for the method shown. In cells and extracts the contact can be indirect. Tags and fused reporters may be left off the sequences shown.

For the assay, the target named is T1, CENP-A^CID::YFP fusion protein (Drosophila), Q9V6Q2.
T1 chain: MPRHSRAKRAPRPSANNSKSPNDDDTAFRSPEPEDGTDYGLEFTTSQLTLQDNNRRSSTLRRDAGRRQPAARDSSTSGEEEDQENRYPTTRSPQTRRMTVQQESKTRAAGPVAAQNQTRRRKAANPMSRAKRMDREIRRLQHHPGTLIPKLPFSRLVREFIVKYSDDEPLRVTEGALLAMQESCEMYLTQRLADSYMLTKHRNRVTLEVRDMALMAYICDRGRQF
Briefly: co-IP; extracts of a stable S2 cell line expressing CENP-A^CID::YFP; IP with αBAF or αGFP antibodies, WB. Conditions: remark: other sources report otherwise.

B1: CENP-C, Q9VHP9 1-1411 (protein)
chain: MSKPQNNDTLELDDILSQPVKDKERFAAFMMRKLAENKPAQNDNLFGNFKLDFDLDFEVPLIKKSQAKPKSKLPEVQPLGELVSKNSAATEKVNEPPVDQAPNENVPPRRSPTLSPNNRRSMRRSGNVPGSDKLRRHAIRRRSRSCGRQLLPEFEETVNLTRSISSPVNFLPEISSTPCTEKQKEEVAKNTTRVETDKPAEKPMELSQEPEPENPLQTKVTSPARNPILAAEIEQICKERQSSFHKNVLQLDYSGRAPYSRPPTPSSPSVAGLRRTYTMEKGPAPGQLLLSPSHRYDTPSKMPVVKAKRFNQELMVPDTPERQSHDPAWQSEPQPEFVVPETQPQDLGELVQTLSRSAISPIVVINTSNSNRSVRRDAVAMKSVPTSPVTALSSPPIAPSPRRSAAASPQKSIAQLPRVEENMDAIMTDDESDEHPSTVPLNLAPSGGNTTRQRRLRSSNRARATIESQESSMRLLNLHKSVNAKKSKPRKTAIPLNKAPSAPINGEQFARELTRMSNYEILDLRKRNSLNEIYPLNGHRNHRSEKLILEEEIQRELLRRNLMDEAEGLPKQQSSDDSNEDYIPVPPKTQSLRTKSNDRSQGRGRPRSTRRDLPMTTELVNYLGLSQTLETRRKSSKDGKRCLYTKGSSDHEDNDSLSPVKLPRLSKSIQIVPPPPVSLRYSQSLQNLPCSGKFDFDNVVMAAPPDFHDSVNSDAIEIAPPPPEYVVNTRGRSTSGRKSNKNDLVLPPPGYEGGQEEEHDERPSQPRCTAKELQQSTQNGRRAMENELVPPPIEYVEEENRNNEQSRRSTKNGNLVDRNTHNAVEYCEPPEPPEYDDSDHGQASILRRSGKKLQHSKQSVQKSNKEQIIAPSYENNEDYDSDEEPIYNEEYGKEESQNKNVTRRKSDKDEMASHTLECIEGPDPNWNSSCNKQNRNHQNASKSKENDKLANRSSKSQKLSNPRQNAVGTEKSVALSNRGEECTEKSSDVMESLRVNTPTPPIDQNSDDVPSRNPSPSRTLLSDDVPSTSRAALEFLQRSQNMSKSRPPDESSADVVFKKPLAPAPRAKSKKGKSEVDKLKLAKMPVEAEELNTTGIRRSKRGQVPLQMSWCHTMDPSKFNFMSGFIEPRSKNSKTKKGNLSKAKKASATKPKPTVEKNLPDNRGPLCSSTPRISEKLPGAIPHSESLGLSTLTWEETEVQAEAEKVPKKRGRPKKAVGGVQTDTEAEPEPEPEPMISSVAPLTSDQEEPDVPDEQAPYTEAALGPVVFSTPLRDEQEEASTKLMQWLRGVGDAPPSASMSDENASVSSANELIFCQVDGIDYAFYNTKEKAMLGYMRFKPYQKRSMKQAKVHPLKLLVQFGEFNVETLAVGEEKEVHSVLRVGDMIEIDRGTRYSIQNAIDKVSVLMCIRS
Regarding B1, the binding entry is “no binding”.
